# Results reported in PMC4916389.
# The chains behind the UniProt entries cited, without tags or fusion partners. Where a name states a change or a piece, a line headed by the entry shows the natural chain unless it says otherwise.
# UniProt F7W245: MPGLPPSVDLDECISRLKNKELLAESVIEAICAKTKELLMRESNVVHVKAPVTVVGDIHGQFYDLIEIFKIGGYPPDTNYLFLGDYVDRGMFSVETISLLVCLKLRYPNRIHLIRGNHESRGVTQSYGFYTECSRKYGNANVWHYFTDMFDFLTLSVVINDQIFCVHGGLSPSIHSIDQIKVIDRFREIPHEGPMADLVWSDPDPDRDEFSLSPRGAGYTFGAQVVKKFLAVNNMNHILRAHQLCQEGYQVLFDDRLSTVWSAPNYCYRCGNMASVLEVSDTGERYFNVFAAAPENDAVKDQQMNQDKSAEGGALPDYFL
# Results are given in words; binding and its absence hold for the method and conditions named. Binding seen in cells or lysates may run through a third protein. Here binding means that the protein was enriched with, or labelled near, the bait; the list need not be complete.
# Target: NTAP-PP2Ac1 (catalytic subunit 1 of protein phosphatase 2A with an N-terminal TAP tag) (Sordaria macrospora) (UniProt F7W245)
# Experiment: affinity purification with mass spectrometry; tandem affinity purification (TAP) with NTAP-PP2Ac1 as bait from protein extract of the S. macrospora Δpp2Ac1::ntap-pp2Ac1 strain; TEV cleavage with AcTEV; tryptic digestion and MudPIT MS; four replicates; unspecific background and ribosomal proteins subtracted
row,binding,Binder
1,binds,"GTPase-activating protein SAC7 (protein, UniProt F7W308 1-1105) MTSAATAAAPVAPAHVPPPPPPTSSQLQSHTQTQAQTQAQAQVQAHNQVAQAQAQAQAQAYSHSHTQSLSQPHHRAYNPYNAFAHHPQPPPPSKRDLKSWWKGFKLPSKHQEAHGIATPFTRSKPYRSTSLFAEDMEGCLSDLPEAVALLQEIVAQEVLIAARADARSQPTSVSLNRMSTGALFYEKPLQLETLARFLNWRLSRRCTGEDGSWPVQDPAKTKSVVPEPPKGIFGVPLRDSIKYANVAISLVDENGKSYIYGYVPIVVAKCGVFLKEKATDVEGIFRLSGSEKRIKELKTIFDSPDRYGKGLVWDGYTVHDAANVLRRYLNDLPEPVVPLELYEEFRKPLKGATRQAAGDTDGPQFVENFDMDAAIIRYQQLITELPPLNRQLMLYILDLLAVFAAKSDINRMNSQNLAAIFQPGMLSHPAHAMAPEEYRLNQCVIIFLIENQDHFLIGMQGTAADERTVQEVQKGTPTVNAPGTPKNYQSGVNRTASNASAGAESVSKEGMIRRNKSTSSRRSLASNGAPSPGSPALTSTPTGGLGRSNTLPSKRSPRVPPGRFAHRHDVSNSPVGPLTPVHPPSVPEVTPPTPTVLPPAPAVVYEVVTPPEESSVPSITTSTAPSSLLPSQSVQAARSQEKLLDPSAEAAAPSKERRMPNIPSIFQRAPTGENELRQPNKLRKKMPGAGGHYSAHSSTISLPRSAAASPAVEATNPMEMVPPLPGNLDAVVSSGQTAPSPSDSTPRASQAPSAPSTMLNPNNAPETQLKLRESPPTSVTSYNDMSDPDQVETQTTASFASPEVASPDRDKRRRWRLSRKKEDSISLHSPPNFSQPPISPRMLGSNSQAEGSNSSVGSSGYFHNQRPRASMSGDVSDAGMMSSLDDRSMMSDGTREGRDRDRDRDWDKSSEYRKSNIADWLKNKYREHRETAEQRRNKSPPAHDGRSASIGERIRKSIDTKREMNNGSERGYSDEHIPMPPLPPREPGPGNSQSSIQSSPQSFQQTQPQPAQAQQPPALYQTEQSVEVQLVAQTLPAQPSVQPEQPQLQHFQPQQVSVHQSQPQLSPEPLPQIPEQPTEAPVPAQAPIPTQAPIPTPSRHMDLDE"
2,binds,"protein phosphatase two A phosphatase activator 1 (PTPA1), endogenous (protein, UniProt F7VW68 1-658) MDTKFKPPGPPAGSSSSSPTTLPALPKLEILNPSSTLPSHRFLRPAKRINEGLDVSQFLTSKAYRDIGVWILQLNHALVPRVIKKSPAAATASASTSSEPKTESTEEDKQPKAEEEPPKDALTAKLQSLHKKKDEQRPREEIRTFPLPKGDEVKEEEPESIQKLQRLLKKVEAIIDEAPPNPGPRRFGNVSFRTWHKILEQRAEGLLREYLPGGVLRWETGGGGEKKEGVKKKEEEEGWEEEGADTETEGDGSADSDKKTNEQKTQEVVGPLEELKAYFLGGFGSAQRLDYGTGHELSFMMFLGGLWKLGGFEGEENDEDGEVERRIVLGVVEPYLRVIRRLILTYTLEPAGSHGVWGLDDHSFIPYIFGSAQYTRPISSPNEPTPLEGSVPNAPKPGDITKPTAVERYRTENMYFSAIGFINDVKKGPFWEHSPILFDVSGIKDGWGKINKGMIKMFNAEVLSKFPVVQHFPFGSLFRWEQDPQAGTPVQSVHMQNQPVASSAAAAAVTGGVGIPTERPSGTAAPWAQTQAPGVASGGGPGTTAPWAQKPSSAPGPGGITGTAAPWARAPTQAPTQAPGAGAGMAPPMTAAPWARSSGAGAGAEVGPSAANRFTPYKPTGVPGGAPDTGPAPPESFRSGTPGTASNQFAVTKAPWAK"
3,binds,"two A phosphatase-associated protein 42 (TAP42), endogenous (protein, UniProt F7VNJ5 1-406) MSDQEPRSLKATFAAAEEKRLSLENSPPNPSDYADTLSAAIKLYQSCLSQISILSLFSSNEGLEDLNTNDLPYLLVNYHLAELIQKIPSPTPSPAERKRLLDQAREAYERYLHLLDSYEGLLNPTYKKRLERYTDSPTEFTVAGASASDPNARRNAKIANFKAEKELRQKLAYLRQRPEYAAADLELDDDESTTDQTGGGGNTGDEEVVRSVHLAHLDLCTHLTFQALESLNREMEVLNMAPREPASLPSAQLRGNNQAGAGNDMGAQDDLRRRQGGADPRDYSDRLDMPLSRLQGILGGSGPILSKEGRPLRPFTLTGTRQEIAKGVFRPSHNLPTMSIDEYLEEERRRGGIIEGGGEASWKAGEKNPDDEDDHEKLDAETMKARAWDEFVEANPKGAGNTLNRG"
4,binds,"DEF (SMAC_00817), protein probably involved in RNA polymerase II degradation (protein, UniProt F7VN58 1-988) MSEVQSRPVAARGRGSGRGGRGGLSTRGGRSATRTNGDSAESSSLPSLEDEGEIGQLKKQYGSKVAIIKEMFPDWSDVDVLFALNETDGDESLAVTRIAEGTISQWGEVTKPKKVSKPKTKTDTFTSTPVDSFPGSTRPARGGRVESGRGRGRATERGGRGGGRGKPLNATINGHKTTESEKLSVPTDEANVWGTPKPAEEASGWPEESSPATETPAAAPAPVALKPVGPAQKTWASMLRQSVPKPAPKPKEVAPPKPAEPVIEPLPPVAEPTPVEPEVQAEPEAAEPEVPTPVEEPTPEPVKKEATPPPPPAVPALPIVPIEPALPAIPVVPEVALKPSKDQLTETNLEQVADDSHPPQTETAASEAADSWDPRAQAPSVTATPNSASQQQHQTSRAPGSGFATTASKATDRTSTRTPTYARRILDQQEPVRMPGNRDQVDRAAVQFGAFSLNEEDDIDGDREEPETRPQPPQDSPVTQPRASLPPVQPAPVPETFAAQKPAASLPPTGPASTTTTAPPTAPTQPSAAAAVSQGAYYLPISSLVDDSLKTPAEAATQPPTAPATQQFGRFGQPAPQEPASFGASKPFDAFGQQPGAVAAQTQYETGFPGQGQAAQTQNQQQPVGAFSSAPSDYSQYYTADQSRYNYYGQNNFGQQQGAQGQQDGLSQPQRGFGYNAPQADNLSQYPQSGAQHTQTRFGSGSEMAGTPTPNQAGTQAQTAQTTQAQTHGQQQPHDQYGPYGSHPYYSNPYYSAYMNYNGYNQGAYGAPYGKGNLGYQPNQYGMSPQAPHGYASSPAGFGQSTLHRETGVGAAGLNDYGRTASGQTAQQQGLGGSGFGGMHDAFGRGGSSYQSQAGQSFNAPGTQPGAGPSASDDLKPFGDSKAASGPSPALGGAARPGSATNNAPSQSGLPPPQSNQQSGLGGMGSYGYPNHLQGHGLHNNQQTGTGYGMGATGSQGHQNTYGSYGGQGFGGGYYGNPPRGGWGNNYH"
5,binds,"putative methyltransferase SMAC_09155 (protein, UniProt F7WBD3 1-375) MSSPFKKAQSPASEPKSPKGKEKSPTPAPTSPVGDESLEPVGLLPGAHWGQQVQEMDEDNDSTLGSDTESSTASISSSILHYRSVLGRTYHSDSVTDTEYWGPNDAKANELLDIMHATLVMLFDGKLYTSPLNEKEIKNAIDIGTGTGVWAIDFADDHPNCNVVGTDISPIQPTWLPPNACFEINDATKQWTYQENYFDFIHLRWLTGVIQDWNALYKEAYRCAKPGAWIEHLDVDAQFYCFDGTMPEKSAMAQWGPIWKEVGRKTGLEFNVVSSNTMEKGLKNAGFTNITSEDYYVPASSWSDDEKMKQLGIYNSVAMTHDVEGFLVYFMSNYLGWTSKDITNYAATIRREFREAKIHSNGRWRIVRAQKPLDA"
6,binds,"PRO22 (STRIP1/2 homolog), endogenous (protein, UniProt F7VWV9 1-1120) MTIMNALWSKATSSSGDSAQKSAKPTNDAVNTTSEALPDLSERPNAPALPARPALQRNQPSAPPPAAPSNPPPPVPSGSGSGNANNASAQPQDSLSLAQLRRIVAEFPKSEPIAYDYVYSDMGPIEEEVDEWFFYDFWQYVRLNNANHAFDSAWVKMYGEDETWESVDDDGREKFVRNEVEQLQVSSDKTARVEAIGTLLYIVLGRWTATVKKANLPNLADHKVKSAATKEQLDAMKAGVKLLAKYGGLPPMWDALRKAFELFWADDGDASQRVQANNEELMELMHLMTILYISLQTTMDDVEDMAVARKELLALNPNLVHFMLHATAKLRWDDRNILPQAQVGSATFGIPVAANQHRMLMSSQVFLLFWKSLLLVFGGSKHIAEAKKATAETLSDVKDKEIITASPLDYHVFRQEITSKYPSYIPPQCAIPLEAEQTSILPPLPNHPTRNNGQNGILPGPPNQSASASILHQPVHIATPAPSPPPSPGVGGKGGKKQNYQTNQNFPFMYPPLDATSNSAGGKGGAGLQDLLVGRKWEGSDVPASIIEAGELFSTRTRMTRATRQLWEERERFLKFERGWEGADEDLIDELDLSELTLEEKEELGLLKESEKKKEKHGHEIDLGPRPVDDDIKRRLEAVEEFYKEALPHLQSLVIVLLKAIVAIASSFVQPPPGQQNPGPQNNGRAGGGPPQGRGQNNGNNASNDPPSPSDDNVDEARSREIAAKAVTGIMILLLKWLKLSHILKFEYFTQLLLDSNYLPLVLKLFALHDVQQVVESKTDRIEHSFFYFCASRSGVIPPQGLINPTATDFEDVDVSEDEAAPPAIKRNRSPPGAEKGGPPDASSQPTQQQQQQQRFENSDVQSRPEVDELGYPVNPLPKEPITDFSRRNFFSLINYLRVMQKICKHKAHRNLLLVHYKSSNILRKSLKVPQQELRLYTLKLFKNQVPYCGRKWRQSNMRVITAIYLHCRPELRDEWLSGSDVDAEVEEALPLEQALRSLTHWFNVQRYPERMGAEVTAAMREERDFFTRELEKSDWMGWEGIMAGGGMGMDGGGGGPEPMMGMQGMQGMPGMPGMGMGMNMGMPGMGIGGMPGMGGMAGIEYAAAAAAAQTEHENSMGWS"
7,binds,"putative methyltransferase SMAC_06301 (protein, UniProt F7W6E4 1-385) MSSEGKAQLPTPEAASPKGEAKSPTPGPASPVQATSPTPGPAAPGTAAPGLLSGAHWADVGLPEEGAENDWDSTLGNDTESSTASISSSILKYRTINGRTYHSDSVTDGEYWGPNDEKQNEMLDISHHVMTLLLDGKLYTAPITDNPENIIDIGTGTGLWAIDMADEFPDCNVIGTDLSPNQPTWVPPNLRFEINDASKEWTYQPNFFDFIHMRWLTGAIRDWTAVYKEAYRCLKPGGWIEHMDSSGDALSHDNSLADDSALKQWGKIWQEGGKRLGNPVDLLPANLQEIGMKEAGFVNITKKDYLIPASPWPKDEKQKELGLYFSTTWTADLEGVCQFMFGNVMGWEKEEISAYFTHLKSELKDTSIHASVIYRVVYAQKPLDA"
8,binds,"PUB1 (SMAC_02147), putative poly(A) RNA binding protein (protein, UniProt F7W137 1-495) MADAGPPPTTGQLPPPPQPNAGAPGYENGQNNNSNPAHMPPPPLHIPQNTNPIPTAITSPMGGNGDTSGIMSPTSAGNPFGRRAAPEPNKRALYVGGLDPRVTEDVLRQIFETTGHVQNVKIIPDKNVGKPGSPEQPHDAQQQKGYNYGFVEYDDPGAAERAMQTLNGRRVHQSEIRVNWAYQSNNQNKEDTSGHFHIFVGDLSNEVNDEVLLQAFSAFGSVSEARVMWDMKTGRSRGYGFVAFRDRPDAEKALSSMDGEWLGSRAIRCNWANQKGQPSIAQQQAMQQMGLTPTTPYGHHHFPTHGVHSYDMIVAQTPAWQTTCYVGNLTPYTTQNDLVPLFQNFGYVVESRFQADRGFAFIKMDTHENAAMAICQLNGYQVNGRPLKCSWGKDKTPNPQQFDPNQPYSPQSAQTPGYPGTPSTYFNQYGNSYPGQQANYNGPQAQSPAGYGSQMGYNGPPSAGGYGRGQPGPNAQWNQPSPAQNFGNGFGGYQG"
